Here are results for two compounds from patent US20220151274A1, “PREPARATIONS WITH C-METHYL FLAVONOIDS” (BRAIN AG, priority 2018, published 2022).

Data set [1] in a line: Tasting of extracts containing Pinoquercetin (natural taste, sip and spit). Format: in vivo. Particulars: ethanol below 0.5%, vs 0.5% ethanol in water, 3-5 assessors.
Data set [2] is described as follows: Tasting of high-purity Pinoquercetin + potassium chloride (KCl). The data set is classed as in vivo. The method, then:
The sensory evaluation of the samples was performed twice by a team of seven experienced assessors.

Pinoquercetin: the “Descriptive evaluation of taste” value in data set [1] (3 mg/l) and in data set [1] (7.5 mg/l) was “neutral” each time.

Take `Cc1c(O)cc2oc(-c3ccc(O)c(O)c3)c(O)c(=O)c2c1O` [Pinoquercetin]: the average confidence score entry in data set [2] (25 μM (8 ppm) with 1.5% potassium chloride in spring water) and in data set [2] (50 μM (16 ppm) with 1.5% potassium chloride in spring water) was “confidence score: fairly sure dominant” in each case.
